Results deposited as PubChem BioAssay AID1224830 (NIAID, 2016)

Assay: 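Host factors that control LPS-induced TNF expression in human macrophages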 (primary screen)
Cell system: human THP-1 monocytic leukaemia cells, TNF dual-luciferase reporter clone, PMA-differentiated to macrophage-like cells
Reagents: siRNA pool against human genes, 50 nM
Timing: LPS for 4 h, given about 3 days after siRNA transfection
Treatment: bacterial LPS (TLR4 ligand), 10 ng/ml
Read-out: 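TNF firefly reporter luminescence divided by renilla, normalised to the plate median, then turned into a robust z-score for each replicate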
Scale: TNF reporter robust z-score: higher = stronger TNF reporter response to LPS
Call rule: 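Each well counts as active if its z-score is over 2.8 or under -1.5; controls are left without a call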
The whole screen tested about 18,000 reagents; shown is a part drawn at random. About 2,900 of all reagents (16%) count as active. 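Calls are made per well; low scores hint the gene aids the LPS response, high scores that it dampens it.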 Entries without a mark were called inactive. Repeated entries: four replicate wells of each siRNA pool.

| gene knocked down | TNF reporter robust z-score |
| --- | --- |
| TMEM53 | -0.87 |
| TMEM53 | 0.3 |
| TMEM53 | 0.53 |
| TMEM53 | -1.05 |
| SNRPB | -0.3 |
| SNRPB | -0.56 |
| SNRPB | -0.82 |
| SNRPB | -1.93 (active) |
| ADGRF1 | -0.56 |
| ADGRF1 | -0.45 |
| ADGRF1 | 0.33 |
| ADGRF1 | 1.15 |
| THY1 | -0.34 |
| THY1 | 0.4 |
| THY1 | -0.3 |
| THY1 | -0.63 |
| KRTAP12-2 | -0.13 |
| KRTAP12-2 | -0.37 |
| KRTAP12-2 | -0.2 |
| KRTAP12-2 | 0.56 |
| SLC30A6 | 0.62 |
| SLC30A6 | 0.92 |
| SLC30A6 | -0.09 |
| SLC30A6 | 0.01 |
| C1QTNF2 | -0.53 |
| C1QTNF2 | -0.89 |
| C1QTNF2 | -0.48 |
| C1QTNF2 | -1.05 |
| SLC22A5 | 0.29 |
| SLC22A5 | 0.76 |
| SLC22A5 | 0.28 |
| SLC22A5 | 1.45 |
| INSIG1 | 1.03 |
| INSIG1 | 1.9 |
| INSIG1 | 2.71 |
| INSIG1 | 1.92 |
| SALL4 | -0.4 |
| SALL4 | -0.18 |
| SALL4 | -0.22 |
| SALL4 | 0.11 |
| TNFRSF10C | 0.05 |
| TNFRSF10C | -0.87 |
| TNFRSF10C | -1.11 |
| TNFRSF10C | 0.23 |
| OR2Z1 | 0.4 |
| OR2Z1 | -0.26 |
| OR2Z1 | 1.03 |
| OR2Z1 | 1.14 |
| ZNF571 | -0.75 |
| ZNF571 | -1.01 |
| ZNF571 | -1.22 |
| ZNF571 | -0.47 |
| CCNDBP1 | -0.62 |
| CCNDBP1 | -0.47 |
| CCNDBP1 | -0.35 |
| CCNDBP1 | 0.17 |
| NDUFA11 | 0.03 |
| NDUFA11 | 0.02 |
| NDUFA11 | 1.55 |
| NDUFA11 | -0.03 |
| DPH6 | -1.16 |
| DPH6 | -1.4 |
| DPH6 | -1.13 |
| ASPSCR1 | 1.39 |
| ASPSCR1 | -0.78 |
| ASPSCR1 | 1 |
| ASPSCR1 | 0.37 |
| ARHGEF15 | -0.53 |
| ARHGEF15 | 0 |
| ARHGEF15 | -0.9 |
| ARHGEF15 | -0.62 |
| CLCN6 | -1.05 |
| CLCN6 | -0.65 |
| CLCN6 | -1.79 (active) |
| CLCN6 | -1.67 (active) |
| ZNF385B | 0.77 |
| ZNF385B | 1.62 |
| ZNF385B | 3.22 (active) |
| ZNF385B | 2.91 (active) |
| GULP1 | 1.06 |
| GULP1 | 1.32 |
| GULP1 | 0.44 |
| GULP1 | 0.86 |
| KGD4 | -0.7 |
| KGD4 | -0.65 |
| KGD4 | -0.97 |
| KGD4 | -0.63 |
| KBTBD2 | -0.39 |
| KBTBD2 | 0.38 |
| KBTBD2 | 0.43 |
| KBTBD2 | 0.83 |
| TNFRSF10D | -0.08 |
| TNFRSF10D | 1 |
| TNFRSF10D | 0.04 |
| TNFRSF10D | 1.21 |
| FOXD3 | -0.06 |
| FOXD3 | 0.08 |
| FOXD3 | 0.22 |
| FOXD3 | 0.55 |
| SP140 | 5.72 (active) |
| SP140 | 0.92 |
| SP140 | -0.34 |
| SP140 | 0.55 |
| MYO5A | -0.18 |
| MYO5A | 1.79 |
| MYO5A | 1.19 |
| MYO5A | 1.01 |
| PHACTR1 | 4.51 (active) |
| PHACTR1 | 1.17 |
| PHACTR1 | 0.37 |
| PHACTR1 | 0.46 |

No new results follow: 5 of the entries above.
| gene knocked down | TNF reporter robust z-score |
| --- | --- |
| INSIG1 | 1.92 |
| SALL4 | -0.4 |
| SALL4 | -0.18 |
| SALL4 | -0.22 |
| SALL4 | 0.11 |
